{"source": "patent US20260027116A1", "about": "“Methods of Treating Chronic Graft-Versus-Host Disease Following Allogeneic Hematopoietic Stem Cell Transplantation” (Kadmon Corporation, LLC, priority 2022, published 2026)", "key": {"cGVHD symptom burden": {"system": "cGVHD symptom burden", "assay": "Example 1: Lee Symptom Scale (LSS) score", "format": "in vivo, human", "description": "Lee Symptom Scale (LSS) summary score measures the effect on patients' functioning and well-being. The Lee Symptom Scale is a 30-item scale developed to measure the symptoms of cGVHD and is described in Lec S J, Cook E F, Soiffer R, Antin J H. Development and validation of a scale to measure symptoms of chronic graft-versushost disease. Biol Blood Marrow Transplant 2002; 8:444-452.\nAll responses were assessed by the investigators.\nChange From Baseline in Overall Score on Lee cGvHD Symptom Scale at Specified Time Points. Lee cGVHD symptom scale, a patient-reported symptom scale used to measure symptom burden and has 7 subscales (Skin, Eyes and Mouth, Breathing, Eating and Digestion, Muscles and Joints, Energy, and Mental and Emotional) with ratings as follows: 0—Not at all, 1—Slightly, 2—Moderately, 3—Quite a bit, 4—Extremely, with lower values representing better outcome. Score for each subscale was normalized to a score ranged from 0 to 100, where higher score=worse symptoms. An overall score was calculated as average of these 7 subscales. EOT visit was performed within 3 days after the participant's last dose of study drug. Baseline value was defined as valid and last non-missing value obtained within 28 days prior to participant receiving first study medication. […] Analysis was performed on mITT population. Here, ‘number analyzed’=participants with available data for each specified category. Here, ‘0’ in the number analyzed field signifies that none of the participants were available for the analysis at the specified time points."}, "lung function": {"system": "lung function", "assay": "Example 1: percent predicted FVC change from baseline", "format": "in vivo, human", "settings": "Cohort 1: 200 mg QD, mean (SD)", "description": "Change From Baseline in Percent Predicted Forced Vital Capacity (FVC) at Each Specified Time Points. FVC was the total amount of air (in liters) exhaled from the lungs during the lung function test measured by spirometer which assessed the change in lung function related to the disease status. Baseline value was defined as valid and last non-missing value obtained within 28 days prior to participant receiving first study medication. EOT visit was performed within 3 days after the participant's last dose of study drug. […] Analysis was performed on mITT population. Here, ‘number analyzed’=participants with available data for each specified category. Here, ‘0’ in the number analyzed field signifies that none of the participants were available for the analysis at the specified time points."}}, "note": "Further values from the same series stand in other lists."}
{"smiles": "CC(C)NC(=O)COc1cccc(-c2nc(Nc3ccc4[nH]ncc4c3)c3ccccc3n2)c1", "note": "[Belumosudil, 2-{3-[4-(1H-indazol-5-ylamino)-2-quinazolinyl]phenoxy}-N-(propan-2-yl) acetamide]", "values": [{"measurement": "Change From Baseline in Overall Score on Lee cGvHD Symptom Scale, Mean (Standard Deviation)", "setting": "cGVHD symptom burden; Cohort 1: 200 mg QD, Cycle 17, Day 1", "result": "−4.1 (17.2) score on a scale"}, {"measurement": "Change From Baseline in Overall Score on Lee cGvHD Symptom Scale, Mean (Standard Deviation)", "setting": "cGVHD symptom burden; Cohort 1: 200 mg QD, Cycle 18, Day 1", "result": "−2.3 (17.6) score on a scale"}, {"measurement": "Change From Baseline in Overall Score on Lee cGvHD Symptom Scale, Mean (Standard Deviation)", "setting": "cGVHD symptom burden; Cohort 1: 200 mg QD, Cycle 19, Day 1", "result": "−7.7 (19.6) score on a scale"}, {"measurement": "Change From Baseline in Overall Score on Lee cGvHD Symptom Scale, Mean (Standard Deviation)", "setting": "cGVHD symptom burden; Cohort 1: 200 mg QD, Cycle 20, Day 1", "result": "−4.6 (22.0) score on a scale"}, {"measurement": "Change From Baseline in Overall Score on Lee cGvHD Symptom Scale, Mean (Standard Deviation)", "setting": "cGVHD symptom burden; Cohort 1: 200 mg QD, Cycle 21, Day 1", "result": "−3.1 (19.1) score on a scale"}, {"measurement": "Change From Baseline in Overall Score on Lee cGvHD Symptom Scale, Mean (Standard Deviation)", "setting": "cGVHD symptom burden; Cohort 1: 200 mg QD, Cycle 22, Day 1", "result": "−4.1 (18.9) score on a scale"}, {"measurement": "Change From Baseline in Overall Score on Lee cGvHD Symptom Scale, Mean (Standard Deviation)", "setting": "cGVHD symptom burden; Cohort 1: 200 mg QD, Cycle 23, Day 1", "result": "−4.1 (19.1) score on a scale"}, {"measurement": "Change From Baseline in Overall Score on Lee cGvHD Symptom Scale, Mean (Standard Deviation)", "setting": "cGVHD symptom burden; Cohort 1: 200 mg QD, Cycle 24, Day 1", "result": "−6.7 (21.0) score on a scale"}, {"measurement": "Change From Baseline in Overall Score on Lee cGvHD Symptom Scale, Mean (Standard Deviation)", "setting": "cGVHD symptom burden; Cohort 1: 200 mg QD, Cycle 25, Day 1", "result": "2.2 (18.8) score on a scale"}, {"measurement": "Change From Baseline in Overall Score on Lee cGvHD Symptom Scale, Mean (Standard Deviation)", "setting": "cGVHD symptom burden; Cohort 1: 200 mg QD, Cycle 26, Day 1", "result": "1.3 (14.3) score on a scale"}, {"measurement": "Change From Baseline in Overall Score on Lee cGvHD Symptom Scale, Mean (Standard Deviation)", "setting": "cGVHD symptom burden; Cohort 2: 200 mg BID, Cycle 17, Day 1", "result": "−10.1 (5.5) score on a scale"}, {"measurement": "Change From Baseline in Overall Score on Lee cGvHD Symptom Scale, Mean (Standard Deviation)", "setting": "cGVHD symptom burden; Cohort 2: 200 mg BID, Cycle 18, Day 1", "result": "−11.5 (8.4) score on a scale"}, {"measurement": "Change From Baseline in Overall Score on Lee cGvHD Symptom Scale, Mean (Standard Deviation)", "setting": "cGVHD symptom burden; Cohort 2: 200 mg BID, Cycle 19, Day 1", "result": "−9.9 (7.8) score on a scale"}, {"measurement": "Change From Baseline in Overall Score on Lee cGvHD Symptom Scale, Mean (Standard Deviation)", "setting": "cGVHD symptom burden; Cohort 2: 200 mg BID, Cycle 20, Day 1", "result": "−9.0 (10.3) score on a scale"}, {"measurement": "Change From Baseline in Overall Score on Lee cGvHD Symptom Scale, Mean (Standard Deviation)", "setting": "cGVHD symptom burden; Cohort 2: 200 mg BID, Cycle 21, Day 1", "result": "−7.5 (10.7) score on a scale"}, {"measurement": "Change From Baseline in Overall Score on Lee cGvHD Symptom Scale, Mean (Standard Deviation)", "setting": "cGVHD symptom burden; Cohort 2: 200 mg BID, Cycle 22, Day 1", "result": "−14.5 (9.1) score on a scale"}, {"measurement": "Change From Baseline in Overall Score on Lee cGvHD Symptom Scale, Mean (Standard Deviation)", "setting": "cGVHD symptom burden; Cohort 2: 200 mg BID, Cycle 23, Day 1", "result": "−11.6 (9.3) score on a scale"}, {"measurement": "Change From Baseline in Overall Score on Lee cGvHD Symptom Scale, Mean (Standard Deviation)", "setting": "cGVHD symptom burden; Cohort 2: 200 mg BID, Cycle 24, Day 1", "result": "−18.7 (—) score on a scale"}, {"measurement": "Change From Baseline in Overall Score on Lee cGvHD Symptom Scale, Mean (Standard Deviation)", "setting": "cGVHD symptom burden; Cohort 2: 200 mg BID, Cycle 25, Day 1", "result": "−12.4 (8.2) score on a scale"}, {"measurement": "Change From Baseline in Overall Score on Lee cGvHD Symptom Scale, Mean (Standard Deviation)", "setting": "cGVHD symptom burden; Cohort 3: 400 mg QD, Cycle 17, Day 1", "result": "0.0 (12.5) score on a scale"}, {"measurement": "Change From Baseline in Overall Score on Lee cGvHD Symptom Scale, Mean (Standard Deviation)", "setting": "cGVHD symptom burden; Cohort 3: 400 mg QD, Cycle 18, Day 1", "result": "−2.3 (7.8) score on a scale"}, {"measurement": "Change From Baseline in Overall Score on Lee cGvHD Symptom Scale, Mean (Standard Deviation)", "setting": "cGVHD symptom burden; Cohort 3: 400 mg QD, Cycle 19, Day 1", "result": "−6.6 (9.9) score on a scale"}, {"measurement": "Change From Baseline in Overall Score on Lee cGvHD Symptom Scale, Mean (Standard Deviation)", "setting": "cGVHD symptom burden; Cohort 3: 400 mg QD, Cycle 20, Day 1", "result": "−2.8 (5.6) score on a scale"}, {"measurement": "Change From Baseline in Overall Score on Lee cGvHD Symptom Scale, Mean (Standard Deviation)", "setting": "cGVHD symptom burden; Cohort 3: 400 mg QD, Cycle 21, Day 1", "result": "−4.0 (7.9) score on a scale"}, {"measurement": "Change From Baseline in Overall Score on Lee cGvHD Symptom Scale, Mean (Standard Deviation)", "setting": "cGVHD symptom burden; Cohort 3: 400 mg QD, Cycle 22, Day 1", "result": "−3.6 (5.0) score on a scale"}, {"measurement": "Change From Baseline in Overall Score on Lee cGvHD Symptom Scale, Mean (Standard Deviation)", "setting": "cGVHD symptom burden; Cohort 3: 400 mg QD, Cycle 23, Day 1", "result": "−6.2 (7.7) score on a scale"}, {"measurement": "Change From Baseline in Overall Score on Lee cGvHD Symptom Scale, Mean (Standard Deviation)", "setting": "cGVHD symptom burden; Cohort 3: 400 mg QD, Cycle 24, Day 1", "result": "−5.6 (5.7) score on a scale"}, {"measurement": "Change From Baseline in Overall Score on Lee cGvHD Symptom Scale, Mean (Standard Deviation)", "setting": "cGVHD symptom burden; Cohort 3: 400 mg QD, Cycle 25, Day 1", "result": "−8.4 (3.4) score on a scale"}, {"measurement": "Change From Baseline in Overall Score on Lee cGvHD Symptom Scale, Mean (Standard Deviation)", "setting": "cGVHD symptom burden; Cohort 3: 400 mg QD, Cycle 26, Day 1", "result": "0.2 (—) score on a scale"}, {"measurement": "Change From Baseline in Percent Predicted Forced Vital Capacity (FVC)", "setting": "lung function; Cycle 37, Day 1", "result": "7.0 (—) percent predicted FVC"}, {"measurement": "Change From Baseline in Percent Predicted Forced Vital Capacity (FVC)", "setting": "lung function; Cycle 38, Day 1", "result": "2.0 (—) percent predicted FVC"}, {"measurement": "Change From Baseline in Percent Predicted Forced Vital Capacity (FVC)", "setting": "lung function; Cycle 39, Day 1", "result": "12.5 (0.7) percent predicted FVC"}, {"measurement": "Change From Baseline in Percent Predicted Forced Vital Capacity (FVC)", "setting": "lung function; Cycle 40, Day 1", "result": "3.0 (—) percent predicted FVC"}, {"measurement": "Change From Baseline in Percent Predicted Forced Vital Capacity (FVC)", "setting": "lung function; Cycle 41, Day 1", "result": "15.0 (—) percent predicted FVC"}, {"measurement": "Change From Baseline in Percent Predicted Forced Vital Capacity (FVC)", "setting": "lung function; Cycle 43, Day 1", "result": "17.0 (—) percent predicted FVC"}]}
